# Results are given in words; binding and its absence hold for the method and conditions named. In cells and extracts the contact can be indirect. Some entries that bind do so weakly or less than the wild type.
# Sequences of proteins named here, by UniProt entry; tags and fusion partners are left off. Residues count along the entry.
# UniProt P01375, residues 77-233: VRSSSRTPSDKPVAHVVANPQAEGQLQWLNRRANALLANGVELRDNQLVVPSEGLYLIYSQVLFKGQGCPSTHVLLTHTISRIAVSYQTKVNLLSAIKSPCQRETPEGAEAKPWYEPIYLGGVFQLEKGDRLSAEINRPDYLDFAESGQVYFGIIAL
# B1: MAK195 scFv (scFv)
# scFv: MEVQLKESGPGLVAPSQSLSITCTVSGFSLTDYGVNWVRQPPGKGLEWLGMIWGDGSTDYDSTLKSRLSISKDNSKSQIFLKMNSLQTDDTARYYCAREWHHGPVAYWGQGTLVTVSAGGGGSGGGGSGGGGSDIVMTQSHKFMSTTVGDRVSITCKASQAVSSAVAWYQQKPGQSPKLLIYWASTRHTGVPDRFTGSGSVTDFTLTIHNLQAEDLALYYCQQHYSTPFTFGSGTKLEIKRTVAAPSVFIFPPSDYKDDDDKASAI
# Target: human TNFα (biotinylated) (human) (UniProt P01375)
# Assay: pull-down of 35S-labelled mRNA-scFv and free scFv by biotinylated antigen on streptavidin magnetic beads (FIG. 4)
binder,measurement,value
B1,binding,binds
